## Library screening results

From ChEMBL document CHEMBL3988442, “University of Dundee, Small-Polar-MMV Screening Library” (2021).

Each number is a percent effect as filed.
The controls that fix the scale are not given in the record; negative values are as filed.
Compounds were drawn at random from those tested, without regard to their results.
Two or more numbers in one place are separate tests of the same structure; such repeats can differ widely.

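Viability assay of Plasmodium falciparum sporozoites; the read-out is not stated. The concentration is filed as 10 mM, unlikely as a test dose, so the dose is not known. Direction is inferred from retests: higher values go with lower viability. Strong results were mostly tested again. About 34,000 compounds were tested under these conditions; 0.84% (about 280) showed 50% or more at least once.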

compound | percent effect
O=C(NCC(F)(F)F)C1CSCN1S(=O)(=O)c1ccc(F)cc1Cl (centres unmarked) | 4.307
CCC(=O)NCCc1cc2nc(-c3ccncc3)ccn2n1 | 1.412
COC(=O)C(C)CN(Cc1ccccc1)C(=O)CN1CCCNC1=O (centres unmarked) | 0.1183
CCN(CC)c1ccc(NC(=O)N2CCc3sccc3C2)cn1 | -20.62 and -13.55 and 2.249
CCc1nc2c(N3CCC4(CC3)CC(=O)N(CC(C)C)C4)ncnc2o1 | -18.29
Cc1cccc(-n2cc(C(=O)N3CCn4c(C)nnc4C3)nn2)c1 | 7.577
[H][C@@]12CCN(S(=O)(=O)c3cccs3)[C@]1([H])CCC(=O)N2CCOC | -7.881
Cc1cc(C(=O)N2CCc3nnc(N(C)C)cc3C2)c(C)n1C1CC1 | -1.909
Cc1cc(C)c(CNC(=O)N2CCCC2C(N)=O)c(=O)[nH]1 (centres unmarked) | -12.41
CCS(=O)(=O)N1CCCc2ccc(NC(=O)Cc3ccc(F)cc3)cc21 | -1.676
CC1(C)CC(NC(=O)c2cnn(-c3ccccc3F)c2N)CC(C)(C)N1 | -1.908
CC(NCc1ccccc1Cl)c1ccc(OCC(=O)NC2CC2)cc1 (centres unmarked) | 3.701
[H][C@@]12CCN(Cc3c(C)noc3C)C[C@@]1([H])O[C@H](c1ccncn1)C2 | 0.9143
Cc1nc(N2CCCC2)nc2c1CCN(C(=O)C1CCCC1)CC2 | -6.579
CCN1Cc2ccccc2CC2(CCN(C)CC2)C1=O | 5.719
I.c1cc2c(cc1C1(CNC3=NCCN3)CCCC1)OCCO2 | 3.86
O=C(c1ccccc1-n1cccn1)N1CCCN(c2cccnn2)CC1 | 6.474
Cc1csc(CN(C)S(=O)(=O)c2ccc(C)c(N(C)C)c2)n1 | 13.5
CCc1nc(C2CCCN2C(=O)c2ccoc2C)no1 (centres unmarked) | -7.407
O=C(O)C(F)(F)F.[H][C@@]12CCN(c3cccnc3)C[C@]1([H])CN(C(=O)c1ccc(C)nc1)C2 | -5.051
Cc1cnn(CC2CN(c3nnc(C)c(C)c3C#N)CCO2)c1 (centres unmarked) | 7.051
O=C(NCCCN1CCCC1=O)Nc1ccc(Br)cc1Cl | -10.09
O=C(N1CCCC1)N1CCCC2(CCN(c3ccsc3)C2=O)C1 (centres unmarked) | -5.469
Cc1n[nH]c2c1C(c1ccc(O)c(Cl)c1)SCC(=O)N2 (centres unmarked) | -2.412
CC(C)Cc1noc(CN2CCN(c3nccs3)CC2)n1 | 22.08
COc1ccc(C(=O)N2CCOC3(CNCCOC3)C2)c(OC)n1 (centres unmarked) | 17.46
O=C(O)C(F)(F)F.c1cncc(N2CCC3(CCCN(c4ccncc4)C3)CC2)c1 | -7.589
[H][C@]12CC[C@]([H])(CN(C(=O)c3ccccn3)C1)N(C(=O)CCc1cccs1)C2 | 11.78
Cc1nc(CN2CCCC(N(C)CC3CCCC3)C2)no1 (centres unmarked) | 10.85
CC(=O)N1CCC(Cc2cccc(-c3c(C)noc3C)n2)C1 (centres unmarked) | 11.66
Cn1nccc1CNC(=O)CCn1nc(C(F)(F)F)c(Cl)c1C1CC1 | 10.43
CC(=O)Nc1nc(C(=O)N2CCCC2c2noc(C)n2)cs1 (centres unmarked) | -4.742
CCc1ccc(CN2C[C@@H](C)C3(CCN(CC(=O)N(C)C)C3=O)C2)o1.O=C(O)C(F)(F)F (some centres unmarked) | 10.95
Cc1nc(NCCc2ccc(Cl)cc2)cc(C(=O)N2CCOCC2)n1 | -8.506
CNc1nc(C2CCCN2C(C)=O)nc2c1CCN(CC1CC1)C2 (centres unmarked) | -9.894
COC(=O)c1cccn1C1CCN(Cc2cccc(C(N)=O)c2)CC1 | 5.199
c1cnnc(N2CCCC2CNCc2nc3ccccc3o2)c1 (centres unmarked) | -1.59
COc1ccccc1CC(=O)NS(C)(=O)=O | 5.724
Cc1nc(NC2CCCC2)cc(C2CCN2C(=O)c2cnn(C)c2)n1 (centres unmarked) | 3.337
O=C(c1ccn(-c2cccc(Cl)c2)n1)N1CCN(CCO)CC1 | 6.949
COCC1CN(C(=O)CNC(C)=O)Cc2ncnn2C1 (centres unmarked) | -25.08
Cc1nc(CN2CCN(C(=O)c3ccnc(N(C)C)c3)CC2)cs1 | 4.321
CC(=O)N1CCCN(C(=O)NCc2ccc(-c3ccn[nH]3)cc2)CC1 | 9.841
COc1cc(-c2cc(C3CCOC3)c(C#N)c(N)n2)ccc1O (centres unmarked) | -6.505 and -19.78 and -16.67
CCO[C@H]1CO[C@@]2(CCCN(S(=O)(=O)c3cccnc3)C2)C1.O=C(O)C(F)(F)F | -15.1
CCOc1ncccc1C(=O)N1CCC(Nc2ccc(C)nn2)CC1 | -1.581
CN(C)c1ncccc1CNC(=O)N1CCCC1c1ccsc1 (centres unmarked) | -7.195
Cc1cc(C)n(CC2CN(Cc3cccc(C(N)=O)c3)CCO2)n1 (centres unmarked) | 0.2255
CC(C)NC(=O)C1CCC2(CCNCC2)C1 (centres unmarked) | -4.962
CC(C)Cc1nc(CN(C)CCOc2ccc(F)cc2)no1 | -6.746
CC(C)OCCCNC(=O)C1CCC(=O)N(C2CCCC2)C1 (centres unmarked) | -0.355
Cc1ncc2c(n1)CCN(Cc1ncc(C(C)(C)C)o1)C2 | 13.43
Cc1cnn(CCNCc2nnc(-c3ccc(F)cc3)o2)c1 | 3.174
Cn1ccc2c(C(=O)N3CCCC3c3noc(C4CC4)n3)cccc21 (centres unmarked) | 38.2 and 37.91 and 23.38
Cc1nn(C)cc1-c1cncn1CCc1ccc2c(c1)OCCO2.Cl | 35.23 and 54.6 and 46.78
Cc1nc(C)c(CN2CCC(N(C)Cc3noc(C4CC4)n3)C2)s1 (centres unmarked) | 12.51
NC(=O)Cn1cc(NC(=O)N2CCSCC2)cn1 | 12.86
N#CC1(NC(=O)Cn2nnc(-c3cc4ccccc4o3)n2)CCCC1 | -76.73
Cn1cc(C2CC(=O)NC23CCN(C(=O)c2cccnc2)CC3)cn1.O=C(O)C(F)(F)F (centres unmarked) | 7.239
Cc1nccn1CCC1CCN(C(C)C)CC1 | -2.586
Cc1cnc(CN2CCN(C(C)c3nc(C(C)C)no3)CC2)cn1 (centres unmarked) | -1.143
Cc1cc(NC(=O)CN(CC2CCOC2)C2CC2)no1 (centres unmarked) | -5.258
CC(C)c1nc(C2CCCN(C(=O)c3ccc4nccn4c3)C2)no1 (centres unmarked) | -9.48
Cc1ccccc1-c1cncc(C2CCN(C(C)C)CC2)n1 | 3.062
Cc1ccc(CN2CCc3ncnc(-c4cccnc4)c3CC2)o1.O=C(O)C(F)(F)F.O=C(O)C(F)(F)F | -1.623
CCNc1cc2c(nn1)CCN(C(=O)c1ccnc(-n3ccnc3)c1)C2 | 18.24
Cc1cnc(CN(C)C2CCN(CCCc3ccccc3)C2)o1 (centres unmarked) | 10.78
Cc1ccc(C(=O)N2CC[C@]3(C[C@@H](OCc4ccccn4)CO3)C2)nc1.O=C(O)C(F)(F)F.O=C(O)C(F)(F)F | 0.7732
O=C(c1cnccn1)N1CCN(Cc2cccnc2)c2ncccc2C1 | -49.07
CC(C(=O)N(C)C)N1CCCN(C(=O)Oc2ccccc2)CC1 (centres unmarked) | -2.023
CC(NC(=O)Nc1cccnc1N1CCCC1)c1ccn(C)c1 (centres unmarked) | 1.159
Cc1nc(C)c(C(=O)N2Cc3ccccc3OCC2Cn2ccnc2)s1 (centres unmarked) | -1.384
Cc1ccc(CNC(=O)NC2CCCc3c2cnn3CCO)cn1 (centres unmarked) | -21.32 and -15.06 and -17.45
COc1ccc2nnc(CCCC(=O)NCCC3=CCCCC3)n2n1 | 1.535
CCCn1cnnc1CNC1CSCCSC1 | -7.338

The last 7 entries again:

{"compound": "O=C(c1cnccn1)N1CCN(Cc2cccnc2)c2ncccc2C1", "percent effect": -49.07}
{"compound": "CC(C(=O)N(C)C)N1CCCN(C(=O)Oc2ccccc2)CC1", "stereo": "centres unmarked", "percent effect": -2.023}
{"compound": "CC(NC(=O)Nc1cccnc1N1CCCC1)c1ccn(C)c1", "stereo": "centres unmarked", "percent effect": 1.159}
{"compound": "Cc1nc(C)c(C(=O)N2Cc3ccccc3OCC2Cn2ccnc2)s1", "stereo": "centres unmarked", "percent effect": -1.384}
{"compound": "Cc1ccc(CNC(=O)NC2CCCc3c2cnn3CCO)cn1", "stereo": "centres unmarked", "percent effect": "-21.32 and -15.06 and -17.45"}
{"compound": "COc1ccc2nnc(CCCC(=O)NCCC3=CCCCC3)n2n1", "percent effect": 1.535}
{"compound": "CCCn1cnnc1CNC1CSCCSC1", "percent effect": -7.338}